Laboratory results reported in article PMC10363310.
Results are given in words; binding and its absence hold for the method and conditions named. In cells and extracts the contact can be indirect. Some binding calls cover weakened binding; strength is not graded here.

Molecular target: Epidermal growth factor receptor (EGFR) (human (endogenous in HCT116)) (UniProt P00533)
Test: co-IP; total protein of HCT116 cells; 1 ug TNNT2 antibody or EGFR antibody (IgG as negative control) overnight at 4 C, protein A agarose beads, washed 3 times, western blot

Cardiac troponin T (TNNT2) (from UniProt P45379 1-298)
binding: binds
